This is an account of results in PMC5495831.

Chains of the proteins cited; added tags and fusions are not shown. Residues count along the entry.
UniProt Q63604, residues 32-821: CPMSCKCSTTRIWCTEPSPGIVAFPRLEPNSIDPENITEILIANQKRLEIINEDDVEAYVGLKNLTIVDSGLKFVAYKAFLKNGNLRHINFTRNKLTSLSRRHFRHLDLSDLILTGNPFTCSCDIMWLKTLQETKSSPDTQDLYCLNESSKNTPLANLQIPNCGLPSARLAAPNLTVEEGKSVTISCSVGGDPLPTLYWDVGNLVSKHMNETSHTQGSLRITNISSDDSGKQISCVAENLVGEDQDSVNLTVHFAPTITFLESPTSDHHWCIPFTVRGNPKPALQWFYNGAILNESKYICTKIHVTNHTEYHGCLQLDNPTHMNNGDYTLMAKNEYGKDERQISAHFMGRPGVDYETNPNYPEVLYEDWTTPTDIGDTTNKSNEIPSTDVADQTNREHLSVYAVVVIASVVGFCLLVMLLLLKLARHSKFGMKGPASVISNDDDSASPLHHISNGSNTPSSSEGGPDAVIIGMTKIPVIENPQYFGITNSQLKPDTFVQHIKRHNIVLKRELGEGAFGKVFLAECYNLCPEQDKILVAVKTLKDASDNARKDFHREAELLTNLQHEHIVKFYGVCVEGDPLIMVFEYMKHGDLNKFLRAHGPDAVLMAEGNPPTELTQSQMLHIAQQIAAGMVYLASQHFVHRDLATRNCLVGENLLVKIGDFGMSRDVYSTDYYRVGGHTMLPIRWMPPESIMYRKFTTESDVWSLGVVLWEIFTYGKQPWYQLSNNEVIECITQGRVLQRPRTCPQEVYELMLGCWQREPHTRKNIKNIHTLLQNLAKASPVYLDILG
UniProt P29476: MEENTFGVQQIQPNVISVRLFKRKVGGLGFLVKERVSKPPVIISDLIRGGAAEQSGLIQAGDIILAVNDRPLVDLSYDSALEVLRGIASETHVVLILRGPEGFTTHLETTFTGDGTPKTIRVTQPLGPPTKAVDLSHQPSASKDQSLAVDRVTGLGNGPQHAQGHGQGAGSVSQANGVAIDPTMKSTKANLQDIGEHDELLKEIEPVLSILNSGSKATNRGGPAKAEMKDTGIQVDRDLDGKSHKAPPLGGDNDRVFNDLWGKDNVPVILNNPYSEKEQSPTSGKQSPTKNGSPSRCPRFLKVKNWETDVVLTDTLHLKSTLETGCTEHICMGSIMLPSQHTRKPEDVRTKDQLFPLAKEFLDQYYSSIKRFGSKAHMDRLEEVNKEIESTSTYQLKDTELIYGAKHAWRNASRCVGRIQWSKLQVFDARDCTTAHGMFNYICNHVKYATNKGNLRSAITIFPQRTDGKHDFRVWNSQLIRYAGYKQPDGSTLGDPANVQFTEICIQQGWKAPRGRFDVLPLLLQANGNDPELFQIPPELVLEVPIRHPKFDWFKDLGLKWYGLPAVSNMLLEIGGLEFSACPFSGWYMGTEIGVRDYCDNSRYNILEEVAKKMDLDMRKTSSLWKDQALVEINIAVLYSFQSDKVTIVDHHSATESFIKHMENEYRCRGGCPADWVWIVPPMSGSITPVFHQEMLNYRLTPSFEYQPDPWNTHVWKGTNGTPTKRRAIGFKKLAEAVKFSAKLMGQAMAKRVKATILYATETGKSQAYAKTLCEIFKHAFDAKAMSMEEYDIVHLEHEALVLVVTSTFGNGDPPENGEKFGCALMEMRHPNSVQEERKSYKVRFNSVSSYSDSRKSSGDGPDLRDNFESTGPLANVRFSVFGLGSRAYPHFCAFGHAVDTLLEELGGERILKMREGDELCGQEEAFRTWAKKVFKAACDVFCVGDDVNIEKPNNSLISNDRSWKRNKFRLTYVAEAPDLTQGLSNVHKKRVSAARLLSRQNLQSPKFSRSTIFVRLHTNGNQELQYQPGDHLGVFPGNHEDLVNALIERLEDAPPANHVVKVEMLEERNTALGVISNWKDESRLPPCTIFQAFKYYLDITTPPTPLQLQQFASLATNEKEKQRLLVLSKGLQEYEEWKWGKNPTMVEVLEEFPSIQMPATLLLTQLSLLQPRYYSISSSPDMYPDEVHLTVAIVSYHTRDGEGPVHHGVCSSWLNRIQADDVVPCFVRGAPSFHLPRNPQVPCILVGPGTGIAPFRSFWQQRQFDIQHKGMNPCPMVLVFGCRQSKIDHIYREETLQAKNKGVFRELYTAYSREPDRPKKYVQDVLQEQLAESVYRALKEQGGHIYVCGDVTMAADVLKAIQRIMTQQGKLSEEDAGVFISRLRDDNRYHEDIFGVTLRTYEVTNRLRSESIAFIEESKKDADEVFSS

Results are given in words; binding and its absence hold for the method and conditions named. Binding seen in cells or lysates may run through a third protein. Some binding calls cover weakened binding; strength is not graded here.

For this assay, the target named is BDNF receptor TrkB (rat (endogenous in primary cortical and hippocampal neuronal cultures)) (UniProt Q63604). In words: co-IP; cultured cell lysates (300 ug protein) of hippocampal or cortical cultures solubilized 2 h in 50 mM Tris-HCl pH 7.5, 1% sodium deoxycholate, 4°C; overnight with TrkB antibody (Upstate # 07-225) or normal rabbit IgG; Sepharose-protein G beads; five washes with deoxycholate buffer; Western ….

As to “neuronal nitric oxide synthase (from UniProt P29476 1-1429) (enzyme)”, the binding entry is “no binding”.

B1: endothelial nitric oxide synthase (enzyme, UniProt Q62600 1-1202)
chain: MGNLKSVGQEPGPPCGLGLGLGLGLCGKQGPASPAPEPSQAPVPPSPTRPAPDHSPPLTRPPDGPKFPRVKNWEVGSITYDTLSAQAQQDGPCTPRRCLGSLVFPRKLQSRPTQGPSPTEQLLGQARDFINQYYNSIKRSGSQAHEQRLQEVEAEVVATGTYQLRESELVFGAKQAWRNAPRCVGRIQWGKLQVFDARDCRTAQEMFTYICNHIKYATNRGNLRSAITVFPQRYAGRGDFRIWNSQLVRYAGYRQQDGSVRGDPANVEITELCIQHGWTPGNGRFDVLPLLLQAPDEPPELFTLPPELVLEVPLEHPTLEWFAALGLRWYALPAVSNMLLEIGGLEFPAAPFSGWYMSSEIGMRDLCDPHRYNILEDVAVCMDLDTRTTSSLWKDKAAVEINVAVLYSYQLAKVTIVDHHAATASFMKHLENEQKARGGCPADWAWIVPPISGSLTPVFHQEMVNYFLSPAFRYQPDPWKGSAAKGTGITRKKTFKEVANAVKISASLMGTVMAKRVKATILYGSETGRAQSYAQQLGRLFRKAFDPRVLCMDEYDVVSLEHEALVLVVTSTFGNGDPPENGESFAAALMEMSGPYNSSPRPEQHKSYKIRFNSVSCSDPLVSSWRRKRKESSNTDSAGALGTLRFCVFGLGSRAYPHFCAFARAVDTRLEELGGERLLQLGQGDELCGQEEAFRGWAQAAFQAACETFCVGEDAKAAARDIFSPKRSWKRQRYRLSTQAESLQLLPRLTHVHRRKMFQATILSVENLQSSKSTRATILVRLDTGSQEGLQYQPGDHIGVCPPNRPGLVEALLSRVEDPPPSTEPVAVEQLEKGSPGGPPPGWVRDPRLPPCTLRQALTYFLDITSPPSPRLLRLLSTLAEESSEQQELEALSQDPRRYEEWKWFRCPTLLEVLEQFPSVALPAPLILTQLPLLQPRYYSVSSAPSAHPGEIHLTVAVLAYRTQDGLGPLHYGVCSTWMSQLKAGDPVPCFIRGAPSFRLPPDPNLPCILVGPGTGIAPFRGFWQDRLHDIEIKGLQPAPMTLVFGCRCSQLDHLYRDEVLDAQQRGVFGQVLTAFSRDPGSPKTYVQDLLRTELAAEVHRVLCLEQGHMFVCGDVTMATSVLQTVQRILATEGSMELDEAGDVIGVLRDQQRYHEDIFGLTLRTQEVTSRIRTQSFSLQERQLRGAVPWSFDPPTQETPGS
For B1, the binding result is on record as “binds”.
